# The list shows a part of the results. Hit calls seldom repeat between salt and free forms of one compound.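 Kinases, fused to nanoluciferase, were expressed in K562 cells; luminescence was measured every 4 h from 2 to 18 h as percent of control (DMSO = 100%, positive control = 0%). A time point is decreased if signal falls significantly (2 sigma). Hits were called by the authors by a rule that is not shown; the count of time points alone does not decide it.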
# Sequences of proteins named here, by UniProt entry; tags and fusion partners are left off. A change or cut given only in a name is not applied to a line headed by its entry.
# UniProt P29317, whole entry: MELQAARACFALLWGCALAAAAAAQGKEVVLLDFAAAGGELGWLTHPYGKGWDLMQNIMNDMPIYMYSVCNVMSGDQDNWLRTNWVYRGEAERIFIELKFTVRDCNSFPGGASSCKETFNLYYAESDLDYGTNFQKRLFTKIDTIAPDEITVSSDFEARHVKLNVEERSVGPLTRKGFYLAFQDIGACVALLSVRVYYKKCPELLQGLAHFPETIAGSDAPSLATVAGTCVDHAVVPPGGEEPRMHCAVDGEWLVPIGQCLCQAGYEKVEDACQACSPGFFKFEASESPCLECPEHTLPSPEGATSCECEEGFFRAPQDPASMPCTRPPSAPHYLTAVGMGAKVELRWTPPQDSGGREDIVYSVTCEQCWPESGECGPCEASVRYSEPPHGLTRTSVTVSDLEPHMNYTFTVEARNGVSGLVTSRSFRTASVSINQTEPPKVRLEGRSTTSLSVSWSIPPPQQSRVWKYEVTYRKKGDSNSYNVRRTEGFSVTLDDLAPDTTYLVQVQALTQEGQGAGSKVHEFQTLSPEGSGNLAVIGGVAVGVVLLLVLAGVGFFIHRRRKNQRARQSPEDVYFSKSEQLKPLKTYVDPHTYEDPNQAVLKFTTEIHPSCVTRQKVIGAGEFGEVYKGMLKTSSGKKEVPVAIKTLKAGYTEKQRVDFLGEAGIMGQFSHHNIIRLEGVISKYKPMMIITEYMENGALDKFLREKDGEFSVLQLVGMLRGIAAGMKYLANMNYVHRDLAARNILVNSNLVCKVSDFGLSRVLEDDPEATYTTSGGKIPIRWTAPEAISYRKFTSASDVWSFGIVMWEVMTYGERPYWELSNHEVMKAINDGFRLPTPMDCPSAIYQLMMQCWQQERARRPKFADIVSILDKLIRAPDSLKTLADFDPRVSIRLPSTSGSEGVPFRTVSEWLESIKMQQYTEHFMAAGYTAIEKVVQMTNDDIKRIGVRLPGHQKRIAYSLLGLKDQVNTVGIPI
# UniProt P21860, whole entry: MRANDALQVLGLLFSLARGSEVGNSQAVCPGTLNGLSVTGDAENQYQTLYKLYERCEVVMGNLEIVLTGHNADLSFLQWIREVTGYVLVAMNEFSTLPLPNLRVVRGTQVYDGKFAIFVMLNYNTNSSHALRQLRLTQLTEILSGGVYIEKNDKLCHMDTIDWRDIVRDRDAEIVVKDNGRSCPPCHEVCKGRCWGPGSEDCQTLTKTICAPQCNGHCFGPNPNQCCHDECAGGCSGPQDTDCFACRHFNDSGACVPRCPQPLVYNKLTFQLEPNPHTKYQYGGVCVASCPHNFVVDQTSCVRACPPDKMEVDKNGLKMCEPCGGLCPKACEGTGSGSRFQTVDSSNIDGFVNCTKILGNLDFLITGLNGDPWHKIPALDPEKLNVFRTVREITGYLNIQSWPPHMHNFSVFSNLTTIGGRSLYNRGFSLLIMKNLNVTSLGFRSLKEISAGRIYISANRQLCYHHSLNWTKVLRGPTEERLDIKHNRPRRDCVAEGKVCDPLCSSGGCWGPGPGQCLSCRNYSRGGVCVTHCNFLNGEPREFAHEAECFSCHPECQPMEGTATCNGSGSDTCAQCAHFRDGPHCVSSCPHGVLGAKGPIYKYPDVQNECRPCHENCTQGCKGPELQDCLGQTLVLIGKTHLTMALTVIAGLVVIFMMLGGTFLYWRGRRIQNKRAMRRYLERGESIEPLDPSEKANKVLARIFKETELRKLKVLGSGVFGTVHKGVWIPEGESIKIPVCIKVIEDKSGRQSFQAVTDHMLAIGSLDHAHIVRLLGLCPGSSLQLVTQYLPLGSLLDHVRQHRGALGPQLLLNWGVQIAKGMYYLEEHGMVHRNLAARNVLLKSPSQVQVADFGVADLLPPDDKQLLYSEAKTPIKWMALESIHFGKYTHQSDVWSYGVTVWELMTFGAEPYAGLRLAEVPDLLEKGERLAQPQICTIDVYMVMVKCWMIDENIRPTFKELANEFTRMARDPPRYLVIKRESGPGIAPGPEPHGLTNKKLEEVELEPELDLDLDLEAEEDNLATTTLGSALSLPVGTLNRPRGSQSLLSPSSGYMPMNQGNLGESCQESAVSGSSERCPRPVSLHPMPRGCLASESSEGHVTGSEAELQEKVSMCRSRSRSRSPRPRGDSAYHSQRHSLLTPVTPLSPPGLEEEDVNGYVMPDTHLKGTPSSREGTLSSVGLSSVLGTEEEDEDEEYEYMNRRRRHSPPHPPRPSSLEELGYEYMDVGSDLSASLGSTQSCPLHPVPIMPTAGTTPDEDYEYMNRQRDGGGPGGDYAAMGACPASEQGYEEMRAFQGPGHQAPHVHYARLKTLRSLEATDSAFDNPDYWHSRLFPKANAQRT
# UniProt O75460: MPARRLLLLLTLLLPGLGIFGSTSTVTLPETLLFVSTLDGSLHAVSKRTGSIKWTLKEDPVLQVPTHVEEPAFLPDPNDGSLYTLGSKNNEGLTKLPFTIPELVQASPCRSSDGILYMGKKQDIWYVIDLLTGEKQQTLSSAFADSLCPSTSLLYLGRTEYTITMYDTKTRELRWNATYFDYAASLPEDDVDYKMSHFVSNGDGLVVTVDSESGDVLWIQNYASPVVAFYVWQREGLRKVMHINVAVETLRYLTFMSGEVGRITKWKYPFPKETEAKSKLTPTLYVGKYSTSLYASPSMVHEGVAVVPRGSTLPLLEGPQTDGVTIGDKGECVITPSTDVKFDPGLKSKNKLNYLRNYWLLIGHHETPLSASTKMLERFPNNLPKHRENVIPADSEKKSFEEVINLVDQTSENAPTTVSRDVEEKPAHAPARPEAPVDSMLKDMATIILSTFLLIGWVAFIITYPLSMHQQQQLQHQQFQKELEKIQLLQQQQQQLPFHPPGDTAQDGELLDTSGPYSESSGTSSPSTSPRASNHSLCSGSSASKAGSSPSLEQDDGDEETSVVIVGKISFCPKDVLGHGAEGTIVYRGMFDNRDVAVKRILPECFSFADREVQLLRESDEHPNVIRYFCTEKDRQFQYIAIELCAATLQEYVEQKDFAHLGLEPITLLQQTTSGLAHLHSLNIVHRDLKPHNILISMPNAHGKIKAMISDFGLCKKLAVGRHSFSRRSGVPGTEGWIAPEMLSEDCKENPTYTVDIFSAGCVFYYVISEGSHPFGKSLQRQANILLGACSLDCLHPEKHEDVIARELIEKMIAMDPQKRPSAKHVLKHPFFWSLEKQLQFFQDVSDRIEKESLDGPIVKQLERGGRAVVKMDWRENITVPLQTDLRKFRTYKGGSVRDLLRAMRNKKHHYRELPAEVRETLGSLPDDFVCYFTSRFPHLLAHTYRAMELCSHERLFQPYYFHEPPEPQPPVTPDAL
# UniProt P11362, whole entry, looked up: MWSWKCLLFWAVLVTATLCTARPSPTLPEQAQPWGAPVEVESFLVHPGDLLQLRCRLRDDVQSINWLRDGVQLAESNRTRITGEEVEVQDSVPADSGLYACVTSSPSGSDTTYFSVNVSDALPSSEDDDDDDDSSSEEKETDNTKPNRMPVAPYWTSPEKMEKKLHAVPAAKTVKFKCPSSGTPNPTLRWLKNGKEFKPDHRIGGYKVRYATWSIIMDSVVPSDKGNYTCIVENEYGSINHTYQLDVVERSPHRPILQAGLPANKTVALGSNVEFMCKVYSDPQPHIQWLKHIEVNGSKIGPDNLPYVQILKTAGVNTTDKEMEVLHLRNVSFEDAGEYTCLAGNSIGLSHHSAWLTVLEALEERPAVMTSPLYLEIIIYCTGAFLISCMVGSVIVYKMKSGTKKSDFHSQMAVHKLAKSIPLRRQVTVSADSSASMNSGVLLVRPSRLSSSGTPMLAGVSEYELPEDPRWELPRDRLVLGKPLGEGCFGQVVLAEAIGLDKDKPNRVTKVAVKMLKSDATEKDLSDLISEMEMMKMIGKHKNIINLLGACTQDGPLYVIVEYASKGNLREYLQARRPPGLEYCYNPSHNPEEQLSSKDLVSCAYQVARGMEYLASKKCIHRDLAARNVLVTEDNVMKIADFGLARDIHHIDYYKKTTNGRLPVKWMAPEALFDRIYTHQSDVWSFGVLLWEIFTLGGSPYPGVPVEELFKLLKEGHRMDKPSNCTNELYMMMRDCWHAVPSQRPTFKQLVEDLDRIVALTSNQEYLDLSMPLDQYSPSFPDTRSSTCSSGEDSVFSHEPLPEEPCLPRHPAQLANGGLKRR
# UniProt P21802, whole entry, looked up: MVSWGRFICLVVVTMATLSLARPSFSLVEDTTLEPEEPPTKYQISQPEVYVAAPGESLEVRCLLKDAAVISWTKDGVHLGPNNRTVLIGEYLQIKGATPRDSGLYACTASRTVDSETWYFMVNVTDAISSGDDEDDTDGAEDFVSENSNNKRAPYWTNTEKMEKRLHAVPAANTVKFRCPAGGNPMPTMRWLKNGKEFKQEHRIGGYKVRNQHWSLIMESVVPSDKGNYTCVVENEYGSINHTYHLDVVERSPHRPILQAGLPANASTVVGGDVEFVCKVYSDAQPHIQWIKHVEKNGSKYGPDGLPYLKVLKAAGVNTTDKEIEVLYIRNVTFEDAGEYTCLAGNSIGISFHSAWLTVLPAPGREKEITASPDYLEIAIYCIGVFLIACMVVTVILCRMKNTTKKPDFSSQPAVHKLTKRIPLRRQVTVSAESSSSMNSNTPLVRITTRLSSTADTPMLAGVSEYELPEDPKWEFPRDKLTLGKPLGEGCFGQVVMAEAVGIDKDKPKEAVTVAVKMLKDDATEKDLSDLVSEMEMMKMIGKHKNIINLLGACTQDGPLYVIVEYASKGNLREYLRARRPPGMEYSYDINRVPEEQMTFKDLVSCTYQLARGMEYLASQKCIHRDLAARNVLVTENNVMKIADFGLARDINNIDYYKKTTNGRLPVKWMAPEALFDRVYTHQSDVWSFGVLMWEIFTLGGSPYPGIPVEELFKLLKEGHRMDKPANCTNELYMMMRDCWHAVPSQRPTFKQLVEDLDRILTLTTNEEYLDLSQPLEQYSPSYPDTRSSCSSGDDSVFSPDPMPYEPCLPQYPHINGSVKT
# UniProt P22607, whole entry, looked up: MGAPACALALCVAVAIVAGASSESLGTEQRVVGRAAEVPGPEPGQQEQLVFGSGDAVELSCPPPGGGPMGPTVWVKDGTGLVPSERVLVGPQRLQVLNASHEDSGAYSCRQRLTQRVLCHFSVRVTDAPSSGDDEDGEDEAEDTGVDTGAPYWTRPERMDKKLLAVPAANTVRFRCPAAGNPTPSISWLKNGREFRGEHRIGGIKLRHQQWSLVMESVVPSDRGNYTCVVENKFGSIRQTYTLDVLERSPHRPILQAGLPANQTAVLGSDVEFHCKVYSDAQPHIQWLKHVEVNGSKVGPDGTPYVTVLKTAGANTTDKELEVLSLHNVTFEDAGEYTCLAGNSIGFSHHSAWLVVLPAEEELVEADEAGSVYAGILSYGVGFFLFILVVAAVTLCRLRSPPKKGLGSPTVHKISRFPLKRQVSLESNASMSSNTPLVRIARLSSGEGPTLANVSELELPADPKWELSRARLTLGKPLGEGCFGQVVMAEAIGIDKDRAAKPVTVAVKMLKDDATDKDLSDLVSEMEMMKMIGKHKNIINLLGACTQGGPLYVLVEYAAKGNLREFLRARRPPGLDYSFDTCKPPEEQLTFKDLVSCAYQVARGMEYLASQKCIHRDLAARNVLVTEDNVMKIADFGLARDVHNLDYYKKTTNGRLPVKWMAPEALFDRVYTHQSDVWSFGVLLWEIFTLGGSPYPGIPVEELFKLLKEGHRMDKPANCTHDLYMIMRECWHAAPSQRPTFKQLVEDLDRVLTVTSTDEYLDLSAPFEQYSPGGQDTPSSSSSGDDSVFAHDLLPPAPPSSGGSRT
# What was measured:
# Assay in all cases: number of time points (of 5) at which kinase-Nluc abundance scored as decreased, DMSO-normalised (count); higher = more persistent destabilization
# Settings in all cases: K562; 2-18 h
# EGFR_L861Q = EGFR_L861Q (UniProt P00533)
# EGFR_T790M = EGFR_T790M (UniProt P00533)
# EPHA2 = EPHA2 (UniProt P29317)
# ERBB3 = ERBB3 (UniProt P21860)
# [1] = target: ERBB4_R711C (clone: ERBB4_mut) (UniProt Q15303)
# ERN1 = ERN1 (UniProt O75460)
# FGFR1 = FGFR1 (UniProt P11362)
# FGFR2 = FGFR2 (UniProt P21802)
# FGFR3 = FGFR3 (UniProt P22607)
# FGR = FGR (UniProt P09769)
Structure (SMILES),number of time points (EGFR_L861Q),number of time points (EGFR_T790M),number of time points (EPHA2),number of time points (ERBB3),number of time points [1],number of time points (ERN1),number of time points (FGFR1),number of time points (FGFR2),number of time points (FGFR3),number of time points (FGR)
Cn1cnc(-c2cc3nccc(Oc4ccc(NC(=S)NC(=O)Cc5ccccc5)cc4F)c3s2)c1 [MGCD-265 analog] (10 µM),0,0,0,4,3,0,3,0,0,0
N#Cc1cccc(-c2c[nH]c3ncnc(N4CCOCC4)c23)c1 (10 µM),0,0,0,0,0,0,0,0,0,0
O=C(Nc1nc2ccccc2[nH]1)c1cccc(-n2cccc2)c1 (10 µM),0,0,0,0,0,0,0,0,0,0
O=c1oc2cc(O)ccc2c2ccccc12 [Urolithin B] (10 µM),0,0,0,0,0,0,0,0,0,0
O=C(Nc1ccc(F)cc1F)[C@H](NC(=S)Nc1cc(C(F)(F)F)cc(C(F)(F)F)c1)c1ccccc1 (2.5 µM),0,0,0,0,0,0,0,0,0,0
C=C(C)C(=O)Nc1cccc(-c2ncnc3[nH]cc(C(=O)OCC)c23)c1 (10 µM),0,0,0,0,0,0,0,0,0,0
N#Cc1ccc2ncnc(NC3CCC(N4CCOCC4)CC3)c2c1 (stereo not given) (10 µM),0,0,0,0,0,0,0,0,0,0
C=CC(=O)Nc1cccc(C)c1Nc1ncc2cc(-c3c(Cl)c(OC)cc(OC)c3Cl)ccc2n1 (2.5 µM),0,0,0,0,0,0,0,0,0,0
NCCN1CCN(C/C=C/C(=O)N2CCC[C@@H](n3nc(-c4ccc(Oc5ccccc5)cc4)c4c(N)ncnc43)C2)CC1 [Ibrutinib-MPEA] (10 µM),0,0,0,0,0,0,0,0,0,0
COc1ccc([C@H]2c3[nH]c4ccc(Cl)cc4c3CCN2C(=O)Oc2ccc(Cl)cc2)cc1 (2.5 µM),0,0,0,0,0,0,0,0,0,0
c1cc2c(cc1O[C@H]1OC[C@H]3[C@@H]1CO[C@@H]3c1ccc3c(c1)OCO3)OCO2 [Sesamolin] (10 µM),0,0,0,0,0,0,0,0,0,0
Cc1cc(Nc2cc3ncccc3c(N[C@@H]3C[C@H]4CC[C@@H](C3)N4CCC#N)n2)n[nH]1 [Izencitinib] (10 µM),0,0,0,0,0,0,0,0,0,0
COCCO[C@@H]1[C@H](O)[C@@H](CO)O[C@H]1n1cnc2c(=O)[nH]c(N)nc21 [2′-O-(2-Methoxyethyl)guanosine] (10 µM),0,0,0,0,0,0,0,0,0,0
Cc1ccc(S(=O)(=O)/C=C/C#N)cc1 (10 µM),0,0,0,0,0,0,0,0,0,0
COc1ncc(-c2nc(N3CCOCC3)nc3c(CN4CCC(C(C)(C)O)CC4)cc(F)cc23)cc1NS(C)(=O)=O [Linperlisib] (10 µM),0,0,0,0,0,0,0,0,0,0
"O=C(/C=C/c1ccc(O)c(O)c1)OC1CC(OC(=O)/C=C/c2ccc(O)c(O)c2)(C(=O)O)CC(O)C1O (stereo not given) [1,3-Dicaffeoylquinic acid] (10 µM)",0,0,0,0,0,0,0,0,0,0
CC(C)=CC(=O)CCC(=O)N1CCN(Cc2cc3nc(-c4cccc5[nH]ncc45)nc(N4CCOCC4)c3s2)CC1 (10 µM),0,0,0,0,0,0,0,0,0,0
Cc1ccc(-c2c(C(=O)CCl)n(CCCO)c3ncnc(N)c23)cc1 (10 µM),2,0,0,2,3,0,2,3,0,0

Structure (SMILES),number of time points (EGFR_L861Q),number of time points (EGFR_T790M),number of time points (EPHA2),number of time points (ERBB3),number of time points [1],number of time points (ERN1),number of time points (FGFR1),number of time points (FGFR2),number of time points (FGFR3),number of time points (FGR)
Cn1c(=O)c(F)c(Nc2ccc(I)cc2F)c2c(=O)n(C[C@@H](O)CO)cnc21 (10 µM),0,0,0,1,1,0,0,2,0,0
CC(C)(C)NC(=O)c1cncn1C1CCN(c2ccc(-c3nnc(C(F)(F)F)o3)cn2)CC1 (10 µM),0,0,0,0,0,0,0,0,0,0
COc1cc2ncn(-c3cc(OCc4ccccc4S(C)(=O)=O)c(C#N)s3)c2cc1OC (10 µM),0,0,0,0,0,0,0,0,0,0
CC/C=C\C/C=C\C/C=C\CCCCCCCC(=O)O [α-Linolenic acid] (10 µM),0,0,0,0,0,0,0,0,0,0
COc1ccc(C(=O)Nc2sc3c(c2C(N)=O)CCCC3)cc1OC (10 µM),0,0,0,0,0,0,0,0,0,0
C[C@@H]1O[C@@H](O[C@H]2[C@H](Oc3cc(O)c4c(=O)cc(-c5ccc(O)cc5)oc4c3)O[C@H](CO)[C@@H](O)[C@@H]2O)[C@H](O)[C@H](O)[C@H]1O [Rhoifolin] (10 µM),0,0,0,0,0,0,0,0,0,0
Nc1ncnc2c1c(-c1ccc(Oc3ccccc3)cc1)nn2C1CCCNC1 (racemic) (2.5 µM),0,0,0,0,0,0,0,0,0,0
COc1cc([N+](=O)[O-])ccc1S(=O)(=O)N1C[C@@H](CN2CCN(c3ccccn3)CC2)[C@H](c2cccc(F)c2)C1 (relative stereo) (10 µM),0,0,0,0,0,0,0,0,0,0
O=[N+]([O-])c1cc(C(F)(F)F)cc([N+](=O)[O-])c1NNC(=S)Nc1ccc(F)cc1 (10 µM),0,0,0,0,0,0,0,0,0,0
C/C(=C1/C(=O)Nc2ccc(NC(N)=O)cc21)c1ccc[nH]1 (10 µM),0,0,0,0,4,0,0,0,0,0
COCCOc1ccc(-c2cn(-c3ccccc3)c3nc[nH]c(=O)c23)cc1 (10 µM),0,0,0,0,0,0,0,0,0,0
Cc1cc(-c2cc(OC(=O)c3ccccc3)ccc2Cl)cc2nnc(Nc3ccc(OCCN4CCCC4)cc3)nc12 (0.5 µM),0,0,0,0,0,0,0,0,0,0
C[C@@H](c1ccc2nccn2c1)n1nnc2ncc(-c3cnn(C)c3)nc21 [Savolitinib] (10 µM),0,0,0,0,0,0,0,0,0,0
CNC(=O)c1ccc(-c2cnc3cnc(C(=O)N(C)c4ccc(Cl)cc4)cn23)cc1 (2.5 µM),0,0,0,0,0,0,0,0,0,0
NCc1ccc(Nc2ncc(F)c(Nc3ccccc3)n2)cc1 (10 µM),0,0,0,0,0,0,0,0,0,0
CN(CCNc1ccc2ncc(-c3ccc(C(N)=O)cc3)n2n1)C(=O)OC(C)(C)C (10 µM),0,0,0,0,0,0,0,0,0,0
CC(C)(C)c1ccc(S(=O)(=O)Nc2ccc(-n3ccnc3)cc2)cc1 (10 µM),0,0,0,0,0,0,0,0,0,0
Cc1ccc(S(=O)(=O)Nc2ccccc2C=Nc2ccccc2NS(=O)(=O)c2ccc(C)cc2)cc1 (10 µM),0,0,0,0,0,0,0,0,0,0

# In the list so far, these have an NH in an aromatic ring:
Structure (SMILES),number of time points (EGFR_L861Q),number of time points (EGFR_T790M),number of time points (EPHA2),number of time points (ERBB3),number of time points [1],number of time points (ERN1),number of time points (FGFR1),number of time points (FGFR2),number of time points (FGFR3),number of time points (FGR)
N#Cc1cccc(-c2c[nH]c3ncnc(N4CCOCC4)c23)c1 (10 µM),0,0,0,0,0,0,0,0,0,0
O=C(Nc1nc2ccccc2[nH]1)c1cccc(-n2cccc2)c1 (10 µM),0,0,0,0,0,0,0,0,0,0
C=C(C)C(=O)Nc1cccc(-c2ncnc3[nH]cc(C(=O)OCC)c23)c1 (10 µM),0,0,0,0,0,0,0,0,0,0
COc1ccc([C@H]2c3[nH]c4ccc(Cl)cc4c3CCN2C(=O)Oc2ccc(Cl)cc2)cc1 (2.5 µM),0,0,0,0,0,0,0,0,0,0
Cc1cc(Nc2cc3ncccc3c(N[C@@H]3C[C@H]4CC[C@@H](C3)N4CCC#N)n2)n[nH]1 [Izencitinib] (10 µM),0,0,0,0,0,0,0,0,0,0
COCCO[C@@H]1[C@H](O)[C@@H](CO)O[C@H]1n1cnc2c(=O)[nH]c(N)nc21 [2′-O-(2-Methoxyethyl)guanosine] (10 µM),0,0,0,0,0,0,0,0,0,0
CC(C)=CC(=O)CCC(=O)N1CCN(Cc2cc3nc(-c4cccc5[nH]ncc45)nc(N4CCOCC4)c3s2)CC1 (10 µM),0,0,0,0,0,0,0,0,0,0
C/C(=C1/C(=O)Nc2ccc(NC(N)=O)cc21)c1ccc[nH]1 (10 µM),0,0,0,0,4,0,0,0,0,0
COCCOc1ccc(-c2cn(-c3ccccc3)c3nc[nH]c(=O)c23)cc1 (10 µM),0,0,0,0,0,0,0,0,0,0

# Reference: the supplement of paper PMC12823440, “Inhibitors supercharge kinase turnover through native proteolytic circuits” (Nature, 2025)
